{"source": "paper PMC12040169", "about": "(PLOS Biology, 2025)", "note": "Some of the results follow.", "data": [{"system": "T1, CTL2-GFP (C. trachomatis L2/434/Bu, GFP-expressing)", "T1 construct": "L2/434/Bu, GFP-expressing", "parameters": "species or system HeLa; Intracellular C. trachomatis growth in HeLa cells, bulk GFP fluorescence relative to DMSO", "conditions": "bulk GFP, single well; 28.5 h, 10 µM; inhibitor", "units": {"% of control remaining": "%"}, "values": [{"smiles": "CC(=O)C1=C(O)C(=O)N(CC(=O)O)C1c1cccc([N+](=O)[O-])c1", "note": "(stereo not drawn) [CBK262921]", "% of control remaining": 116.236}, {"smiles": "CC(CCc1ccccc1)N1CCN(S(=O)(=O)c2ccc3ccccc3c2)CC1", "note": "(stereo not drawn) [CBK264240]", "% of control remaining": 96.9536}, {"smiles": "CCc1nn(Cc2ccccn2)c(=O)c2cc3sccc3n12", "note": "[CBK284074]", "% of control remaining": 172.372}, {"smiles": "CC(C)(C)OC(=O)NCc1ccc(CNCc2ccccc2C(F)(F)F)cc1", "note": "[CBK056703]", "% of control remaining": 120.284}, {"smiles": "c1ccc(N2CCC(CNCc3c[nH]nc3-c3cccnc3)C2)cc1", "note": "(stereo not drawn) [CBK305738]", "% of control remaining": 141.671}, {"smiles": "O=C(NC(=S)Nc1ccc(S(=O)(=O)Nc2nccs2)cc1)C12CC3CC(CC(C3)C1)C2", "note": "[CBK261067]", "% of control remaining": 89.2666}, {"smiles": "Cc1c(C(=O)O)sc(S(=O)(=O)N2CCN(C(=O)CC3CCCC3)CC2)c1C(=O)O", "note": "[CBK297122]", "% of control remaining": 114.877}, {"smiles": "CCn1c(C)cc2cc(NS(=O)(=O)c3ccc4[nH]c(=O)[nH]c(=O)c4c3)ccc21", "note": "[CBK286363]", "% of control remaining": 109.624}, {"smiles": "COc1cc(C)c(Nc2cc(-c3cccnc3)ncn2)cc1OC", "note": "[CBK037754]", "% of control remaining": 92.7414}, {"smiles": "OC1CCCn2c1nc1cc(Cl)ccc12", "note": "(stereo not drawn) [CBK113625]", "% of control remaining": 103.834}, {"smiles": "CC1(C)CC(=O)C(=CNCCCn2ccnc2)C(=O)C1", "note": "[CBK261686]", "% of control remaining": 121.693}, {"smiles": "FC(F)(F)c1ccc(OCc2ccc(-c3ccccc3)cc2)nc1", "note": "[CBK115830]", "% of control remaining": 152.175}, {"smiles": "O=C1CCC(=O)N1CCOc1nccnc1N1CCN(CCc2ccccc2)CC1", "note": "[CBK084302]", "% of control remaining": 123.926}, {"smiles": "O=C(c1cnc2ccccc2n1)N1CCN(CCc2ccccc2)CC1", "note": "[CBK200214]", "% of control remaining": 95.5868}, {"smiles": "COCCC(=O)NCc1ccccc1OC1CCNC1", "note": "(stereo not drawn) [CBK024504T]", "% of control remaining": 113.87}, {"smiles": "Nc1cccc(Oc2ccc(C(c3ccc(Oc4cccc(N)c4)cc3)(C(F)(F)F)C(F)(F)F)cc2)c1", "note": "[CBK261645]", "% of control remaining": 91.5586}, {"smiles": "COc1ncccc1CNc1ncnc2c1cnn2CCO", "note": "[CBK305980]", "% of control remaining": 136.653}, {"smiles": "Cc1cc(Cl)c(S(=O)(=O)N2CCN(c3ccc(F)cc3)CC2)cc1OCC(N)=O", "note": "[CBK266439]", "% of control remaining": 152.116}, {"smiles": "CCN(CCc1nc2cc(OC)ccc2[nH]1)C(=O)c1cc(C#N)cn1C", "note": "[CBK306658]", "% of control remaining": 96.2552}, {"smiles": "N#Cc1c(NC(=O)CCn2cnnn2)sc2c1CCC2", "note": "[CBK270041]", "% of control remaining": 122.56}, {"smiles": "CCOC(=O)CSc1nc2cc(Cl)c(Cl)cc2nc1NC(C)C", "note": "[CBK107173]", "% of control remaining": 101.458}, {"smiles": "CN1C[C@@H](NC(=O)COc2ccccc2)C[C@H]1c1nc(-c2ccncc2)no1", "note": "[CBK288855]", "% of control remaining": 139.991}, {"smiles": "Cc1ccccc1C(=O)NC(NC(=S)Nc1sc2c(c1C(N)=O)CCCC2)C(Cl)(Cl)Cl", "note": "(stereo not drawn) [CBK261047]", "% of control remaining": 69.5206}, {"smiles": "O=S1(=O)C=C(c2ccc(Cl)cc2)S(=O)(=O)CC1", "note": "[CBK018403]", "% of control remaining": 123.364}, {"smiles": "COC(=O)c1sccc1S(=O)(=O)N1CCN(c2ncnc3scc(C)c23)CC1", "note": "[CBK023600]", "% of control remaining": 71.8985}, {"smiles": "O=C(NC1CCN(CC2(c3ccccc3)CC2)CC1)c1ccco1", "note": "[CBK285321]", "% of control remaining": 159.523}, {"smiles": "COc1cc(C2CC(=O)Nc3nc(N)[nH]c(=O)c32)ccc1OCc1ccc(F)cc1", "note": "(stereo not drawn) [CBK293980]", "% of control remaining": 153.257}, {"smiles": "O=C(Cc1csc(-c2ccc(Cl)cc2)n1)N1CCN(c2ccccn2)CC1", "note": "[CBK107310]", "% of control remaining": 87.8357}, {"smiles": "COc1cccc(CNC(=O)C2CCN(c3nc4c(-c5cccc(C)c5)csc4c(=O)[nH]3)CC2)c1", "note": "[CBK215603]", "% of control remaining": 161.38}, {"smiles": "CCOC(=O)CCNC(=O)c1ccccc1-n1cccc1", "note": "[CBK149611]", "% of control remaining": 101.261}, {"smiles": "OCc1ccc(-c2nccnc2NCc2cccc(C(F)(F)F)c2)cc1", "note": "[CBK037076]", "% of control remaining": 74.2844}, {"smiles": "C[C@H](c1ccccc1)n1c(=O)[nH]c2ncc(-c3ccc(N(C)C)cc3)nc21", "note": "[CBK064367]", "% of control remaining": 178.594}, {"smiles": "Brc1ccc2c(c1)[C@H]1C=CC[C@H]1[C@@H](c1ccccc1)N2", "note": "[CBK303238]", "% of control remaining": 105.521}, {"smiles": "COc1ccc(-c2coc3c(C)c4oc(=O)c(CC(=O)O)c(C)c4cc23)cc1", "note": "[CBK269403]", "% of control remaining": 96.6384}, {"smiles": "O=C(O)/C=C/C(=O)Nc1cccc(C(=O)O)c1", "note": "[CBK260988]", "% of control remaining": 112.833}, {"smiles": "Cc1ccc(S(=O)(=O)N(CC(=O)NCC2CCCO2)c2cccc(C)c2C)cc1", "note": "(stereo not drawn) [CBK265339]", "% of control remaining": 130.817}, {"smiles": "O=C1CCN(Cc2nc(-c3cccc(C(F)(F)F)c3)no2)CCN1", "note": "[CBK306368]", "% of control remaining": 91.0294}, {"smiles": "O=S(=O)(c1ccc(F)c(Cl)c1)N1CCCN(Cc2ccccc2)CC1", "note": "[CBK045211]", "% of control remaining": 92.7084}, {"smiles": "Cc1cc(CN(C)Cc2c(-c3ccccc3)nn(C)c2C)n[nH]1", "note": "[CBK281707]", "% of control remaining": 108.129}]}]}
